From paper PMC5991575 come the findings set out here.

Holding throughout (experiment): co-IP; HeLa cells cotransfected with Mia40-MYC and CHCHD10-HA variants; lysis buffer 120 mM NaCl, 1 mM EDTA, 0.5% NP-40, 20 mM Tris-HCl pH 8; lysate incubated with HA-labeled magnetic beads overnight at 4°C; immunoblot with antibodies against Mia40 and HA
The target of test [1] is T1, CHCHD10-HA wild-type (human) (UniProt Q8WYQ3).
T1 sequence: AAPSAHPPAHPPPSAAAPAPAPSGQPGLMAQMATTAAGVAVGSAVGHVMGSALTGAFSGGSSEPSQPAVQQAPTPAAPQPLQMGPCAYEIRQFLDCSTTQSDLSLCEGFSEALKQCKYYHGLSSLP

In test [2] the target is T2, CHCHD10-HA Q108* (human) (UniProt Q8WYQ3).
T2 sequence: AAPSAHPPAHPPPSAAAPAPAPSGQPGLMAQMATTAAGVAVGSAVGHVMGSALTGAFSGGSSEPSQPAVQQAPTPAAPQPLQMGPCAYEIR

The target of test [3] is T3, CHCHD10-HA ΔCHCH (human) (UniProt Q8WYQ3).
T3 sequence: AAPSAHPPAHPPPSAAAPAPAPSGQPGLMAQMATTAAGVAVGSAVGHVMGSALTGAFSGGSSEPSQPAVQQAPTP

In test [4] the target is T4, CHCHD10-HA Q108P (human) (UniProt Q8WYQ3).
T4 sequence: T1 sequence with Q92P

Where a chain is given by its changes, count along the chain named. No constants are given. Whether binding was seen depends on the method and setting. Binding seen in cells or lysates may run through a third protein. Some entries that bind do so weakly or less than the wild type. Where a sequence is shown, tags or fusion partners need not be part of it.

B1: Mia40-MYC (enzyme, UniProt Q8N4Q1 1-142)
chain: MSYCRQEGKDRIIFVTKEDHETPSSAELVADDPNDPYEEHGLILPNGNINWNCPCLGGMASGPCGEQFKSAFSCFHYSTEEIKGSDCVDQFRAMQECMQKYPDLYPQEDEDEEEEREKKPAEQAEETAPIEATATKEEEGSS
In the case of B1, the binding result in test [1] was “binds”; in test [2], “binds weakly”; in test [3], “no binding”; in test [4], “binds”.
